Assay [1] addresses HA-TurboID fused to the N-terminus of wildtype UL26 (Tur-N-UL26wt) (Human Cytomegalovirus (HCMV) AD169). Description: proximity labelling; MRC5 fibroblasts infected with Tur-N-UL26wt or Tur-N-UL26ΔC HCMV (MOI = 3), 1 μM biotin from 23 to 24 hpi, RIPA lysate, biotinylated proteins isolated on streptavidin magnetic beads and identified by LC-MS/MS (n = 1).
A further assay has as its target HA-TurboID-PIAS1 (human) (UniProt O75925). Description: proximity labelling; HEK293T cells co-transfected with HA-TurboID-PIAS1 and UL26 WT or UL26ΔC, with or without cytokine (TNFα) treatment, 1 μM biotin for 1 hr at 47-48 h post transfection, Benzonase-treated lysate, streptavidin affinity purification, Western blot for UL26. Background: Immunoblotting shows a protein as a band on a membrane.

Sequences of proteins named here, by UniProt entry; tags and fusion partners are left off.
UniProt O75925: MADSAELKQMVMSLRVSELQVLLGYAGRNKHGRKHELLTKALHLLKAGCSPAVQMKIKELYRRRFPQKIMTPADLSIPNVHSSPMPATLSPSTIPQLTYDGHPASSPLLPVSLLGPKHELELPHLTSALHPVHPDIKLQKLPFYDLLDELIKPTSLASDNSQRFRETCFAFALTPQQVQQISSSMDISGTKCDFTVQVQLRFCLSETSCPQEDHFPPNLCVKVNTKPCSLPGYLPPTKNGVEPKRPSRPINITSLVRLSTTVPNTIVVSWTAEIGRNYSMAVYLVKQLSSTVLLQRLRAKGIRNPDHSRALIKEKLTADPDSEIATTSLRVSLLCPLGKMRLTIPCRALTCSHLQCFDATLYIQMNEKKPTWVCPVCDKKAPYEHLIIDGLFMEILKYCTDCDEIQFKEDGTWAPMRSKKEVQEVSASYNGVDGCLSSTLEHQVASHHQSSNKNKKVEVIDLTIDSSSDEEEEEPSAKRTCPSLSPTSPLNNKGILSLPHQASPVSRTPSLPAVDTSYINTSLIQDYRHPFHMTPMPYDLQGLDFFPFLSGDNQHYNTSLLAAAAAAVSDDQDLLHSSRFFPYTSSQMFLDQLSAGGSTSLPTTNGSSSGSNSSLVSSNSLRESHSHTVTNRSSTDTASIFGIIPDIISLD

No constants are given. Whether binding was seen depends on the method and setting. Binding seen in cells or lysates may run through a third protein. Here binding means that the protein was enriched with, or labelled near, the bait; the list need not be complete.

B1: PIAS3 (protein, UniProt Q9Y6X2 1-628)
chain: MAELGELKHMVMSFRVSELQVLLGFAGRNKSGRKHELLAKALHLLKSSCAPSVQMKIKELYRRRFPRKTLGPSDLSLLSLPPGTSPVGSPGPLAPIPPTLLAPGTLLGPKREVDMHPPLPQPVHPDVTMKPLPFYEVYGELIRPTTLASTSSQRFEEAHFTFALTPQQVQQILTSREVLPGAKCDYTIQVQLRFCLCETSCPQEDYFPPNLFVKVNGKLCPLPGYLPPTKNGAEPKRPSRPINITPLARLSATVPNTIVVNWSSEFGRNYSLSVYLVRQLTAGTLLQKLRAKGIRNPDHSRALIKEKLTADPDSEVATTSLRVSLMCPLGKMRLTVPCRALTCAHLQSFDAALYLQMNEKKPTWTCPVCDKKAPYESLIIDGLFMEILSSCSDCDEIQFMEDGSWCPMKPKKEASEVCPPPGYGLDGLQYSPVQGGDPSENKKKVEVIDLTIESSSDEEDLPPTKKHCSVTSAAIPALPGSKGVLTSGHQPSSVLRSPAMGTLGGDFLSSLPLHEYPPAFPLGADIQGLDLFSFLQTESQHYGPSVITSLDEQDALGHFFQYRGTPSHFLGPLAPTLGSSHCSATPAPPPGRVSSIVAPGGALREGHGGPLPSGPSLTGCRSDIISLD
On to B1, for which the binding result in assay [1] is listed as “binds”.

B2: PIAS4 (protein, UniProt Q8N2W9 1-510)
chain: MAAELVEAKNMVMSFRVSDLQMLLGFVGRSKSGLKHELVTRALQLVQFDCSPELFKKIKELYETRYAKKNSEPAPQPHRPLDPLTMHSTYDRAGAVPRTPLAGPNIDYPVLYGKYLNGLGRLPAKTLKPEVRLVKLPFFNMLDELLKPTELVPQNNEKLQESPCIFALTPRQVELIRNSRELQPGVKAVQVVLRICYSDTSCPQEDQYPPNIAVKVNHSYCSVPGYYPSNKPGVEPKRPCRPINLTHLMYLSSATNRITVTWGNYGKSYSVALYLVRQLTSSELLQRLKTIGVKHPELCKALVKEKLRLDPDSEIATTGVRVSLICPLVKMRLSVPCRAETCAHLQCFDAVFYLQMNEKKPTWMCPVCDKPAPYDQLIIDGLLSKILSECEDADEIEYLVDGSWCPIRAEKERSCSPQGAILVLGPSDANGLLPAPSVNGSGALGSTGGGGPVGSMENGKPGADVVDLTLDSSSSSEDEEEEEEEEEDEDEEGPRPKRRCPFQKGLVPAC
Turning to B2, the binding entry in assay [1] was “binds”.

B3: UL26 WT (protein, UniProt P16762 1-222)
chain: MYAVFGLTRSEVTPHEAAAARYKHRGVIDRQGAAMTSRRAPDGGLNLDDFMRRQRGRHLDLPYPRGYTLFVCDVEETILTPRDVEYWKLLVVTQGQLRVIGTIGLANLFSWDRSVAGVAADGSVLCYEISRENFVVRAADSLPQLLERGLLHSYFEDVERAAQGRLRHGNRSGLRRDADGQVIRESACYVSRVLLRHRVTPGKQEITDAMFEAGNVPSALLP
For the molecule B3, in the assay with HA-TurboID-PIAS1 (human), the binding entry is reported as “binds”.

The values above are taken from publication PMC11142722.
